The text below walks through data of paper PMC10330700.

Chains of the proteins cited; added tags and fusions are not shown.
UniProt P41233: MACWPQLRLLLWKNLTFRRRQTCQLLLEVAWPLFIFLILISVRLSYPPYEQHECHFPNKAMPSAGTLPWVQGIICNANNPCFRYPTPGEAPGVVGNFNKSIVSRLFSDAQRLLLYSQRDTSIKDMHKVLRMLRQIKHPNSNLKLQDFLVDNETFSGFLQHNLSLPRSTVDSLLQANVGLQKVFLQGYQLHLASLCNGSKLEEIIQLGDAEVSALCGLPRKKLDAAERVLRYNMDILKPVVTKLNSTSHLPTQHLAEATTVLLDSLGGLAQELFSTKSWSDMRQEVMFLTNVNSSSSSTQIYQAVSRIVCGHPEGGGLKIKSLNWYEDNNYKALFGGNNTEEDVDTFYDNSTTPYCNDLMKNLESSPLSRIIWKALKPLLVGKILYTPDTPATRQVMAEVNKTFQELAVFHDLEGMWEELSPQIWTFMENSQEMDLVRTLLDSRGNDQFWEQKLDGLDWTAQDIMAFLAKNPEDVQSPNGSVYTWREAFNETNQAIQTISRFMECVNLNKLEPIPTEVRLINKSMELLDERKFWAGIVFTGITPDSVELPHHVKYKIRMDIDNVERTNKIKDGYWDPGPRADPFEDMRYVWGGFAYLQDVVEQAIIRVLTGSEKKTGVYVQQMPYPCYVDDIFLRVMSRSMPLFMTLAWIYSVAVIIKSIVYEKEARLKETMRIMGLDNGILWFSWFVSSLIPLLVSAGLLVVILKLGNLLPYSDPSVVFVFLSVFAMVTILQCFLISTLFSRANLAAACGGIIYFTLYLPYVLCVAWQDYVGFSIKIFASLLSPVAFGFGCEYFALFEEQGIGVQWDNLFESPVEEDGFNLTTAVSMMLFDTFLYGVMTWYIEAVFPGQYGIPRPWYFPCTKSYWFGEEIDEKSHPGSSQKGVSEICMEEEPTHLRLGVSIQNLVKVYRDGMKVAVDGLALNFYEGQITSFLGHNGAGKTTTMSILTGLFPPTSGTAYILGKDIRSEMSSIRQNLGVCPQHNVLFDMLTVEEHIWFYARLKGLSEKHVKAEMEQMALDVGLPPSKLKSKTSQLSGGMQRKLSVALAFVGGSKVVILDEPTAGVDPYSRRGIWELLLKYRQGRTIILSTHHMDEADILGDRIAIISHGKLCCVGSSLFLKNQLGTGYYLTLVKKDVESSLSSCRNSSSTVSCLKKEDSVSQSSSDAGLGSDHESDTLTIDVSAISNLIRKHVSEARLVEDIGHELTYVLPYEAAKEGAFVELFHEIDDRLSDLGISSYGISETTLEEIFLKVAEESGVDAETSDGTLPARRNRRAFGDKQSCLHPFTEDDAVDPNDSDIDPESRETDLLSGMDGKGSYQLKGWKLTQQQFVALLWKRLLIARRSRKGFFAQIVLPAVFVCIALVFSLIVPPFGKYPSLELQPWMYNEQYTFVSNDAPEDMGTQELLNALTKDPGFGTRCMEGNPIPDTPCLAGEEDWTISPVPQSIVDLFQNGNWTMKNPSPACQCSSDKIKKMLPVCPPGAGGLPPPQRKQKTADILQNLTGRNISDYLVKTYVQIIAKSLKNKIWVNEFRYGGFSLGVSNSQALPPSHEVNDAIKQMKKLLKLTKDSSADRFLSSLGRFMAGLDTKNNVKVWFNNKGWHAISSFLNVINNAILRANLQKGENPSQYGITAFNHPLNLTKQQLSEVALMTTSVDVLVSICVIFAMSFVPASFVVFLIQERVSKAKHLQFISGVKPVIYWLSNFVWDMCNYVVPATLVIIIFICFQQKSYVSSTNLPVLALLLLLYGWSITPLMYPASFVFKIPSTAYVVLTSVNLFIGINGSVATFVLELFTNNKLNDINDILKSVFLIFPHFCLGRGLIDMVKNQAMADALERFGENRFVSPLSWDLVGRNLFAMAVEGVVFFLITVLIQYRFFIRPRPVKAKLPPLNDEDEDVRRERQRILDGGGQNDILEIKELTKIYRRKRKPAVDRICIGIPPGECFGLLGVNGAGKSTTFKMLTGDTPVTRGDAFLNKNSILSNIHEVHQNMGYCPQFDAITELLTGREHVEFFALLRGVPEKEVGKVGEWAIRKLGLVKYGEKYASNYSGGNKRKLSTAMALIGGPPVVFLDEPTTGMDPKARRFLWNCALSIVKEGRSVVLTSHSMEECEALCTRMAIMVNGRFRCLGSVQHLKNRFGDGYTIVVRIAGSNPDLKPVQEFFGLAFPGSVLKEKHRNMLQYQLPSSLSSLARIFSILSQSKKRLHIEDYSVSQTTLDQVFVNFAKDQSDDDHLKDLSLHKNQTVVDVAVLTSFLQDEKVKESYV

These are yes or no findings as the source states them, for the method shown. In cells and extracts the contact can be indirect. Some entries that bind do so weakly or less than the wild type.

The assay concerns the target HECT, UBA and WWE domain containing 1 (HUWE1) (mouse (endogenous in murine CD4+ T cells)) (UniProt Q7TMY8). Put plainly: co-IP; co-immunoprecipitation of endogenous proteins from activated CD4+ T cells; which protein was precipitated not given.

On to “ATP-binding cassette transporter A1 (ABCA1) (from UniProt P41233 1-2261)”, for which the binding entry is “binds”.

B1: Scavenging Receptor SR-BI (receptor, UniProt Q61009 1-509)
chain: MGGSSRARWVALGLGALGLLFAALGVVMILMVPSLIKQQVLKNVRIDPSSLSFGMWKEIPVPFYLSVYFFEVVNPNEVLNGQKPVVRERGPYVYREFRQKVNITFNDNDTVSFVENRSLHFQPDKSHGSESDYIVLPNILVLGGSILMESKPVSLKLMMTLALVTMGQRAFMNRTVGEILWGYDDPFVHFLNTYLPDMLPIKGKFGLFVGMNNSNSGVFTVFTGVQNFSRIHLVDKWNGLSKIDYWHSEQCNMINGTSGQMWAPFMTPESSLEFFSPEACRSMKLTYNESRVFEGIPTYRFTAPDTLFANGSVYPPNEGFCPCRESGIQNVSTCRFGAPLFLSHPHFYNADPVLSEAVLGLNPNPKEHSLFLDIHPVTGIPMNCSVKMQLSLYIKSVKGIGQTGKIEPVVLPLLWFEQSGAMGGKPLSTFYTQLVLMPQVLHYAQYVLLGLGGLLLLVPIICQLRSQEKCFLFWSGSKKGSQDKEAIQAYSESLMSPAAKGTVLQEAKL
Take B1: the binding entry is recorded as “no binding”.
